Measurements published in PMC8789201.

Chains of the proteins cited; added tags and fusions are not shown. Lines headed by an entry give the natural chain unless they say otherwise; changes in a name come on top. Residues count along the entry.
UniProt P43403: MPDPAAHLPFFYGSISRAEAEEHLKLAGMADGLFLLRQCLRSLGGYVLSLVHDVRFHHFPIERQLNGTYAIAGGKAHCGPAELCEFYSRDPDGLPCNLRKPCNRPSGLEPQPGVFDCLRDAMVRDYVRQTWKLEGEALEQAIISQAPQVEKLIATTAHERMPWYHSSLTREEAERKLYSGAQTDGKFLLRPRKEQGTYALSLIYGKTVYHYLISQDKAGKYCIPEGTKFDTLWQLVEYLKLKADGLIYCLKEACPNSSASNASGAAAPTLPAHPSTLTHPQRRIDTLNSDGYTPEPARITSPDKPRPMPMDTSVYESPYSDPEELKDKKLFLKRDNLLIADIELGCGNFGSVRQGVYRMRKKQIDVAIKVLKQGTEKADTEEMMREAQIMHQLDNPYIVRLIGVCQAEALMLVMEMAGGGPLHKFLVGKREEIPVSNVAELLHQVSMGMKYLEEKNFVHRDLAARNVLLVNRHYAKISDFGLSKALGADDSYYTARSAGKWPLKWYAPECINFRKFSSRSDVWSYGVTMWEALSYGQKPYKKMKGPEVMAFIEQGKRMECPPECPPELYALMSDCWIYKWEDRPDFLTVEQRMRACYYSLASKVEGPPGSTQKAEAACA
UniProt P62993: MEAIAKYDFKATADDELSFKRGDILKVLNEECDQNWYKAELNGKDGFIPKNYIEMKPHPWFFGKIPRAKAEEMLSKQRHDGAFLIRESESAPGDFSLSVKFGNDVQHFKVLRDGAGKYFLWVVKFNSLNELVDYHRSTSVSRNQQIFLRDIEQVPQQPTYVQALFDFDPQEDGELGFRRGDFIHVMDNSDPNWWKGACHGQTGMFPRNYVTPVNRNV
UniProt P62258: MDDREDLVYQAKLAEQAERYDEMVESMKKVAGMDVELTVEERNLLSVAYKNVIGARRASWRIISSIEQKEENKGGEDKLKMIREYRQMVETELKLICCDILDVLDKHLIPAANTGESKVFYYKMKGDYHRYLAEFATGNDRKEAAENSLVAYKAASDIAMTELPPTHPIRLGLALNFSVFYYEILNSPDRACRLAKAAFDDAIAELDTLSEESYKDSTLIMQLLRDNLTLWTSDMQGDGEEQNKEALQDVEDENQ
UniProt Q9UJ70: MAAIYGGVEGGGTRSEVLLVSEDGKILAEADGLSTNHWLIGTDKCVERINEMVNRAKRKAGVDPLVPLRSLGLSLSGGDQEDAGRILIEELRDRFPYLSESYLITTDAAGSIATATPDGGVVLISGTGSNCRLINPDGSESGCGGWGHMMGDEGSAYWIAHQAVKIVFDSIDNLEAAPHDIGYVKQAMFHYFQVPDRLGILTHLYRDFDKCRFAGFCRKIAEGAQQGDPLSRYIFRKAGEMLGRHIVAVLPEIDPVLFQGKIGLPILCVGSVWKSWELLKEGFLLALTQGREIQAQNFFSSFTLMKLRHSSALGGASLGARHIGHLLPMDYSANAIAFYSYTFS
UniProt Q92918: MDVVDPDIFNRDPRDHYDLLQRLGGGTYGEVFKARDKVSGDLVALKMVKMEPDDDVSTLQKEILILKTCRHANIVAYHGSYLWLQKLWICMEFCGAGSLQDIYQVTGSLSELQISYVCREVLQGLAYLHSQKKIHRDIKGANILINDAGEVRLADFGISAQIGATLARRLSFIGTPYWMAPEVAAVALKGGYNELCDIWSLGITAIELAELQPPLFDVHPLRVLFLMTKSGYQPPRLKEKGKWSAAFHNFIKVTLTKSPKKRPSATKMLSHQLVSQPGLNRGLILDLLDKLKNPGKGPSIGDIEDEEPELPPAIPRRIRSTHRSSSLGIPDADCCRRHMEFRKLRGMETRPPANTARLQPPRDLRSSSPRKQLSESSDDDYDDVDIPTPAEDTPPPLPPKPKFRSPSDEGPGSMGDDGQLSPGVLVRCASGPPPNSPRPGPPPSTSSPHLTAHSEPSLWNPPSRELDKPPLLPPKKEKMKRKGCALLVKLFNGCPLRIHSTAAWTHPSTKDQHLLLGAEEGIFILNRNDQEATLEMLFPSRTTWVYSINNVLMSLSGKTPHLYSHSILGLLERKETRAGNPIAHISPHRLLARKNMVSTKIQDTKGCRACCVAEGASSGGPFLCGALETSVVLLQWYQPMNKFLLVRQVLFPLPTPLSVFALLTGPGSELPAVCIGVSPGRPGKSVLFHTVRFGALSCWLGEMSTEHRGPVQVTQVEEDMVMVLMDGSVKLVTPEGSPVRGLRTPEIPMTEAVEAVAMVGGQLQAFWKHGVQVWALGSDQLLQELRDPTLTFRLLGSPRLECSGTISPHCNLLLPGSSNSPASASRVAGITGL
UniProt P04234, residues 22-171: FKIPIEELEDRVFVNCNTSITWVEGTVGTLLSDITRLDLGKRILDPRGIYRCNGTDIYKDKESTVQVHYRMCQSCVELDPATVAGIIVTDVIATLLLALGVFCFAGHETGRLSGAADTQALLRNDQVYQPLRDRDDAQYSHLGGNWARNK
UniProt O43639: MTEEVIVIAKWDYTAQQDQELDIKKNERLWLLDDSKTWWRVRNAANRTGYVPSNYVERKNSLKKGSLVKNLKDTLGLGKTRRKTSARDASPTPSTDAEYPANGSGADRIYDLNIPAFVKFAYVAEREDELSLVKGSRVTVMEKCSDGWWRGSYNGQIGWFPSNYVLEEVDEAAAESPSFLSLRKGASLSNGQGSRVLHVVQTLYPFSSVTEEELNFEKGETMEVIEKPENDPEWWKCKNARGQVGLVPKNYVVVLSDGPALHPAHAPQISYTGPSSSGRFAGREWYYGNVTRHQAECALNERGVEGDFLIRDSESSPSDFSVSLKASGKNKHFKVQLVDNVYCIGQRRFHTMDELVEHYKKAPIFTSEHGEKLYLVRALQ
UniProt P07766, residues 23-207: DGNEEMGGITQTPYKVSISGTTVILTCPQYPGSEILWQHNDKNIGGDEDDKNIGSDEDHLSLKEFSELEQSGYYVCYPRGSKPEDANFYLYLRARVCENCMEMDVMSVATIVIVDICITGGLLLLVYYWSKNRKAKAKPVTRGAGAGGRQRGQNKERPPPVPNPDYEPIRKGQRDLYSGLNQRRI
UniProt P31946: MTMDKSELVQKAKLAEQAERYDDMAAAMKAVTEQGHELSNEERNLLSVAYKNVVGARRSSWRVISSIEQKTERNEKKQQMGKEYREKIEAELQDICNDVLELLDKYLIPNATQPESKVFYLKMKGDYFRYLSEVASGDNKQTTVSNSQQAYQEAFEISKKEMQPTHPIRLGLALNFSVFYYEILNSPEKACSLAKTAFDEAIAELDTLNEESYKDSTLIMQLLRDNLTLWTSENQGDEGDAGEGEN
UniProt O75791: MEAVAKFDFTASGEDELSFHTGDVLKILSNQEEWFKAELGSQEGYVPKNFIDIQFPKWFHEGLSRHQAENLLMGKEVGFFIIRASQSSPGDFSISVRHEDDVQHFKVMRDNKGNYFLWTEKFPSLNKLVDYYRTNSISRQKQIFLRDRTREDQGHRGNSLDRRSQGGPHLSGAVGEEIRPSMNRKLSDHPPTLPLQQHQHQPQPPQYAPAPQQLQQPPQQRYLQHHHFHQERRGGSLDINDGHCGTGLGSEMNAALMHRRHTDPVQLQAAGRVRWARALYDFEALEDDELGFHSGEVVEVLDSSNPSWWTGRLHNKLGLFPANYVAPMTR
UniProt P09693, residues 23-182: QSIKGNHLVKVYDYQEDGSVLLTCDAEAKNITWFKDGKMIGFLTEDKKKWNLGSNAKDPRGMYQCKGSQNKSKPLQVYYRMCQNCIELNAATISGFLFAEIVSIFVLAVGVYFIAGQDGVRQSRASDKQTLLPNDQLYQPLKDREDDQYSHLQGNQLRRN

T1: VAV1^OST (human) (UniProt P15498)
T1 sequence: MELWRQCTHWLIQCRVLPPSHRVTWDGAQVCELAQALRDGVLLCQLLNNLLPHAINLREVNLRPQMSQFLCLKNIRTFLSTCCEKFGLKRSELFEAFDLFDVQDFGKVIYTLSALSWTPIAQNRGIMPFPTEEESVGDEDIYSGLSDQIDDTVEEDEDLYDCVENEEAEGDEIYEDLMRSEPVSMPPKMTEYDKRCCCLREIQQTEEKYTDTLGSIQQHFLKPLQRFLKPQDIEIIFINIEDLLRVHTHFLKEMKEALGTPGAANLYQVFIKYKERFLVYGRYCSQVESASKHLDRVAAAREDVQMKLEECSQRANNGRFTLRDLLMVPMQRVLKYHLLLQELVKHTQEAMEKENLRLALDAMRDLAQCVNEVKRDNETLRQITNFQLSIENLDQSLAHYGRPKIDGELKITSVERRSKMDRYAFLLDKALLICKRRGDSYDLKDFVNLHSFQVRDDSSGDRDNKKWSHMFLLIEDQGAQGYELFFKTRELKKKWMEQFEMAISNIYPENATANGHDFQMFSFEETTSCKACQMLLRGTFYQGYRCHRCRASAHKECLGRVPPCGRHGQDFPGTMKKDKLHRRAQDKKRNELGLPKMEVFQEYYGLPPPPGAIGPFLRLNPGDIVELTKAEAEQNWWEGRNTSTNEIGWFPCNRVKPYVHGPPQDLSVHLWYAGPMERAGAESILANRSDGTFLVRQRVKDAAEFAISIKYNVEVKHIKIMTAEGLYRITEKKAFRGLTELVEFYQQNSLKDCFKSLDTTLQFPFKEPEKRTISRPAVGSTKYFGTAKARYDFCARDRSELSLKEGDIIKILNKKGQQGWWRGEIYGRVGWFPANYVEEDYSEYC

T2: OST-tagged SLP76 (SLP-76^OST) (human) (UniProt Q13094)
T2 sequence: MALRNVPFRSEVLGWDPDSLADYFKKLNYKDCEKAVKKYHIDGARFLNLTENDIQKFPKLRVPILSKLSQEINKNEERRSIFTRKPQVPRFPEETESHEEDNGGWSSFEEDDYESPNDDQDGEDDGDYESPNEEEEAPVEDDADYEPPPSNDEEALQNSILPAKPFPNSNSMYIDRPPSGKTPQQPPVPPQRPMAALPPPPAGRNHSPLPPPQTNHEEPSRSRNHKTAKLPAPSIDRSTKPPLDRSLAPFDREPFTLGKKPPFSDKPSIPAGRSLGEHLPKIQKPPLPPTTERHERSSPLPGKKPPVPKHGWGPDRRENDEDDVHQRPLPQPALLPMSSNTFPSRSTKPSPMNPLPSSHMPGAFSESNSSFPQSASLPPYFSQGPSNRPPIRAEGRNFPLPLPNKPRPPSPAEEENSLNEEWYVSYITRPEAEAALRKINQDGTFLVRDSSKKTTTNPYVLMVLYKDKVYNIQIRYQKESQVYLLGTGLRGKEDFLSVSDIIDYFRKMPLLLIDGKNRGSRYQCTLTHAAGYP

B1: phospholipase PLC-γ1 (enzyme, UniProt P19174 1-1290)
chain: MAGAASPCANGCGPGAPSDAEVLHLCRSLEVGTVMTLFYSKKSQRPERKTFQVKLETRQITWSRGADKIEGAIDIREIKEIRPGKTSRDFDRYQEDPAFRPDQSHCFVILYGMEFRLKTLSLQATSEDEVNMWIKGLTWLMEDTLQAPTPLQIERWLRKQFYSVDRNREDRISAKDLKNMLSQVNYRVPNMRFLRERLTDLEQRSGDITYGQFAQLYRSLMYSAQKTMDLPFLEASTLRAGERPELCRVSLPEFQQFLLDYQGELWAVDRLQVQEFMLSFLRDPLREIEEPYFFLDEFVTFLFSKENSVWNSQLDAVCPDTMNNPLSHYWISSSHNTYLTGDQFSSESSLEAYARCLRMGCRCIELDCWDGPDGMPVIYHGHTLTTKIKFSDVLHTIKEHAFVASEYPVILSIEDHCSIAQQRNMAQYFKKVLGDTLLTKPVEISADGLPSPNQLKRKILIKHKKLAEGSAYEEVPTSMMYSENDISNSIKNGILYLEDPVNHEWYPHYFVLTSSKIYYSEETSSDQGNEDEEEPKEVSSSTELHSNEKWFHGKLGAGRDGRHIAERLLTEYCIETGAPDGSFLVRESETFVGDYTLSFWRNGKVQHCRIHSRQDAGTPKFFLTDNLVFDSLYDLITHYQQVPLRCNEFEMRLSEPVPQTNAHESKEWYHASLTRAQAEHMLMRVPRDGAFLVRKRNEPNSYAISFRAEGKIKHCRVQQEGQTVMLGNSEFDSLVDLISYYEKHPLYRKMKLRYPINEEALEKIGTAEPDYGALYEGRNPGFYVEANPMPTFKCAVKALFDYKAQREDELTFIKSAIIQNVEKQEGGWWRGDYGGKKQLWFPSNYVEEMVNPVALEPEREHLDENSPLGDLLRGVLDVPACQIAIRPEGKNNRLFVFSISMASVAHWSLDVAADSQEELQDWVKKIREVAQTADARLTEGKIMERRKKIALELSELVVYCRPVPFDEEKIGTERACYRDMSSFPETKAEKYVNKAKGKKFLQYNRLQLSRIYPKGQRLDSSNYDPLPMWICGSQLVALNFQTPDKPMQMNQALFMTGRHCGYVLQPSTMRDEAFDPFDKSSLRGLEPCAISIEVLGARHLPKNGRGIVCPFVEIEVAGAEYDSTKQKTEFVVDNGLNPVWPAKPFHFQISNPEFAFLRFVVYEEDMFSDQNFLAQATFPVKGLKTGYRAVPLKNNYSEDLELASLLIKIDIFPAKENGDLSPFSGTSLRERGSDASGQLFHGRAREGSFESRYQQPFEDFRISQEHLADHFDSRERRAPRRTRVNGDNRL
B2: 14-3-3 η (protein, UniProt Q04917 1-246)
chain: MGDREQLLQRARLAEQAERYDDMASAMKAVTELNEPLSNEDRNLLSVAYKNVVGARRSSWRVISSIEQKTMADGNEKKLEKVKAYREKIEKELETVCNDVLSLLDKFLIKNCNDFQYESKVFYLKMKGDYYRYLAEVASGEKKNSVVEASEAAYKEAFEISKEQMQPTHPIRLGLALNFSVFYYEIQNAPEQACLLAKQAFDDAIAELDTLNEDSYKDSTLIMQLLRDNLTLWTSDQQDEEAGEGN
B3: 14-3-3 γ (protein, UniProt P61981 1-247)
chain: MVDREQLVQKARLAEQAERYDDMAAAMKNVTELNEPLSNEERNLLSVAYKNVVGARRSSWRVISSIEQKTSADGNEKKIEMVRAYREKIEKELEAVCQDVLSLLDNYLIKNCSETQYESKVFYLKMKGDYYRYLAEVATGEKRATVVESSEKAYSEAHEISKEHMQPTHPIRLGLALNYSVFYYEIQNAPEQACHLAKTAFDDAIAELDTLNEDSYKDSTLIMQLLRDNLTLWTSDQQDDDGGEGNN
B4: 14-3-3 θ (protein, UniProt P27348 1-245)
chain: MEKTELIQKAKLAEQAERYDDMATCMKAVTEQGAELSNEERNLLSVAYKNVVGGRRSAWRVISSIEQKTDTSDKKLQLIKDYREKVESELRSICTTVLELLDKYLIANATNPESKVFYLKMKGDYFRYLAEVACGDDRKQTIDNSQGAYQEAFDISKKEMQPTHPIRLGLALNFSVFYYEILNNPELACTLAKTAFDEAIAELDTLNEDSYKDSTLIMQLLRDNLTLWTSDSAGEECDAAEGAEN
B5: ubiquitin-associated and SH3 domain-containing protein UBASH3A (protein, UniProt P57075 1-661)
chain: MAAGETQLYAKVSNKLKSRSSPSLLEPLLAMGFPVHTALKALAATGRKTAEEALAWLHDHCNDPSLDDPIPQEYALFLCPTGPLLEKLQEFWRESKRQCAKNRAHEVFPHVTLCDFFTCEDQKVECLYEALKRAGDRLLGSFPTAVPLALHSSISYLGFFVSGSPADVIREFAMTFATEASLLAGTSVSRFWIFSQVPGHGPNLRLSNLTRASFVSHYILQKYCSVKPCTKQLHLTLAHKFYPHHQRTLEQLARAIPLGHSCQWTAALYSRDMRFVHYQTLRALFQYKPQNVDELTLSPGDYIFVDPTQQDEASEGWVIGISQRTGCRGFLPENYTDRASESDTWVKHRMYTFSLATDLNSRKDGEASSRCSGEFLPQTARSLSSLQALQATVARKSVLVVRHGERVDQIFGKAWLQQCSTPDGKYYRPDLNFPCSLPRRSRGIKDFENDPPLSSCGIFQSRIAGDALLDSGIRISSVFASPALRCVQTAKLILEELKLEKKIKIRVEPGIFEWTKWEAGKTTPTLMSLEELKEANFNIDTDYRPAFPLSALMPAESYQEYMDRCTASMVQIVNTCPQDTGVILIVSHGSTLDSCTRPLLGLPPRECGDFAQLVRKIPSLGMCFCEENKEEGKWELVNPPVKTLTHGANAAFNWRNWISGN

What was measured:
VAV1^OST (human) = target: T1, VAV1^OST (human); assay: affinity purification with mass spectrometry; OST-tagged bait in n-dodecyl-β-D-maltoside lysates of expanded primary human CD4+ T cells, unstimulated or stimulated with anti-CD3 plus anti-CD28 for 30, 60, 120 and 300 s; captured on Strep-Tactin Sepharose 1.5 h at 4°C, eluted with 2.5 mM D-biotin, LC-MS/MS; compared with mock-edited control cells
[1] = target: T2, OST-tagged SLP76 (SLP-76^OST) (human); assay: affinity purification with mass spectrometry; OST-tagged bait in n-dodecyl-β-D-maltoside lysates of expanded primary human CD8+ T cells, unstimulated or stimulated with anti-CD3 plus anti-CD28 for 30, 60, 120 and 300 s; captured on Strep-Tactin Sepharose, eluted with D-biotin, LC-MS/MS; compared with control cells
[2] = target: T2, OST-tagged SLP76 (SLP-76^OST) (human); assay: affinity purification with mass spectrometry; OST-tagged bait in n-dodecyl-β-D-maltoside lysates of expanded primary human CD4+ T cells, unstimulated or stimulated with anti-CD3 plus anti-CD28 for 30, 60, 120 and 300 s; captured on Strep-Tactin Sepharose 1.5 h at 4°C, eluted with 2.5 mM D-biotin, LC-MS/MS; compared with mock-edited control cells
ZAP-70^OST (human) [3] = target: ZAP-70^OST (human) (UniProt P43403); assay: affinity purification with mass spectrometry; OST-tagged bait in n-dodecyl-β-D-maltoside lysates of expanded primary human CD8+ T cells, unstimulated or stimulated with anti-CD3 plus anti-CD28 for 30, 60, 120 and 300 s; captured on Strep-Tactin Sepharose, eluted with D-biotin, LC-MS/MS; compared with control cells
ZAP-70^OST (human) [4] = target: ZAP-70^OST (human) (UniProt P43403); assay: affinity purification with mass spectrometry; OST-tagged bait in n-dodecyl-β-D-maltoside lysates of expanded primary human CD4+ T cells, unstimulated or stimulated with anti-CD3 plus anti-CD28 for 30, 60, 120 and 300 s; captured on Strep-Tactin Sepharose 1.5 h at 4°C, eluted with 2.5 mM D-biotin, LC-MS/MS; compared with mock-edited control cells

Molecule | binding (VAV1^OST (human)) | binding [1] | binding [2] | binding (ZAP-70^OST (human) [3]) | binding (ZAP-70^OST (human) [4])
GRB2 cytosolic adaptor (from UniProt P62993 1-217) | binds | – | – | – | –
14-3-3 ε (from UniProt P62258 1-255) | – | binds | binds | – | –
NAGK (from UniProt Q9UJ70 1-344) | – | – | binds | – | –
serine-threonine protein kinase hematopoietic progenitor kinase 1 (from UniProt Q92918 1-833) (enzyme) | – | binds | binds | – | –
CD3δ subunit of the TCR-CD3 complex (from UniProt P04234 22-171) | – | – | – | binds | binds
NCK2 cytosolic adaptor (from UniProt O43639 1-380) | – | – | binds | – | –
CD3ε subunit of the TCR-CD3 complex (from UniProt P07766 23-207) | – | – | – | binds | binds
CD3ζ subunit of the TCR-CD3 complex (from UniProt P20963-1 22-164) | – | – | – | binds | binds
14-3-3 β (from UniProt P31946 1-246) | – | binds | binds | – | –
GRAP2 cytosolic adaptor (from UniProt O75791 1-330) | binds | – | – | – | –
CD3γ subunit of the TCR-CD3 complex (from UniProt P09693 23-182) | – | – | – | binds | binds
B1 | – | binds | binds | – | –
B2 | – | binds | binds | – | –
B3 | – | binds | binds | – | –
B4 | – | binds | binds | – | –
B5 | – | binds | binds | – | binds

Results are given in words; binding and its absence hold for the method and conditions named. In cells and extracts the contact can be indirect. A yes stands for co-enrichment or nearness to the bait. Other partners may have been found. For some assays here: Tags and fused reporters may be left off the sequences shown.
